Test results reported in publication PMC5833788.
Results are given in words; binding and its absence hold for the method and conditions named. Binding seen in cells or lysates may run through a third protein. Some results given as binding are weak or reduced against the parent protein; the word gives no strength.

Target: T1, human nitrilase 1 (NIT1) (human (endogenous in CACO2)) (UniProt Q86X76)
T1 sequence: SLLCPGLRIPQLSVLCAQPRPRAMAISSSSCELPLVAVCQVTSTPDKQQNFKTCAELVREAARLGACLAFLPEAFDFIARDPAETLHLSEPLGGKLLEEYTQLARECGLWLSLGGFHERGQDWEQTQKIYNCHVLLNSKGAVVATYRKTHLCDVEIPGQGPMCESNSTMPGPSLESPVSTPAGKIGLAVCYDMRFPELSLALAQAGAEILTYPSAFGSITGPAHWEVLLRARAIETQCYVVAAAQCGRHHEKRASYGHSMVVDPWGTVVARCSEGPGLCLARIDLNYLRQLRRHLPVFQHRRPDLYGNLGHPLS
Experiment: co-IP; endogenous proteins in CACO2 cell lysate; NIT1, SARA or SMAD2/3 antibody added overnight at 4 °C, magnetic beads 6 h, washed six times in PBS, eluted in Laemmli buffer, western blotting

B1: ZFYVE9 (SARA/SMADIP) (protein, UniProt O95405 1-1425)
chain: MENYFQAEAYNLDKVLDEFEQNEDETVSSTLLDTKWNKILDPPSHRLSFNPTLASVNESAVSNESQPQLKVFSLAHSAPLTTEEEDHCANGQDCNLNPEIATMWIDENAVAEDQLIKRNYSWDDQCSAVEVGEKKCGNLACLPDEKNVLVVAVMHNCDKRTLQNDLQDCNNYNSQSLMDAFSCSLDNENRQTDQFSFSINESTEKDMNSEKQMDPLNRPKTEGRSVNHLCPTSSDSLASVCSPSQLKDDGSIGRDPSMSAITSLTVDSVISSQGTDGCPAVKKQENYIPDEDLTGKISSPRTDLGSPNSFSHMSEGILMKKEPAEESTTEESLRSGLPLLLKPDMPNGSGRNNDCERCSDCLVPNEVRADENEGYEHEETLGTTEFLNMTEHFSESQDMTNWKLTKLNEMNDSQVNEEKEKFLQISQPEDTNGDSGGQCVGLADAGLDLKGTCISESEECDFSTVIDTPAANYLSNGCDSYGMQDPGVSFVPKTLPSKEDSVTEEKEIEESKSECYSNIYEQRGNEATEGSGLLLNSTGDLMKKNYLHNFCSQVPSVLGQSSPKVVASLPSISVPFGGARPKQPSNLKLQIPKPLSDHLQNDFPANSGNNTKNKNDILGKAKLGENSATNVCSPSLGNISNVDTNGEHLESYEAEISTRPCLALAPDSPDNDLRAGQFGISARKPFTTLGEVAPVWVPDSQAPNCMKCEARFTFTKRRHHCRACGKVFCASCCSLKCKLLYMDRKEARVCVICHSVLMNAQAWENMMSASSQSPNPNNPAEYCSTIPPLQQAQASGALSSPPPTVMVPVGVLKHPGAEVAQPREQRRVWFADGILPNGEVADAAKLTMNGTSSAGTLAVSHDPVKPVTTSPLPAETDICLFSGSITQVGSPVGSAMNLIPEDGLPPILISTGVKGDYAVEEKPSQISVMQQLEDGGPDPLVFVLNANLLSMVKIVNYVNRKCWCFTTKGMHAVGQSEIVILLQCLPDEKCLPKDIFNHFVQLYRDALAGNVVSNLGHSFFSQSFLGSKEHGGFLYVTSTYQSLQDLVLPTPPYLFGILIQKWETPWAKVFPIRLMLRLGAEYRLYPCPLFSVRFRKPLFGETGHTIMNLLADFRNYQYTLPVVQGLVVDMEVRKTSIKIPSNRYNEMMKAMNKSNEHVLAGGACFNEKADSHLVCVQNDDGNYQTQAISIHNQPRKVTGASFFVFSGALKSSSGYLAKSSIVEDGVMVQITAENMDSLRQALREMKDFTITCGKADAEEPQEHIHIQWVDDDKNVSKGVVSPIDGKSMETITNVKIFHGSEYKANGKVIRWTEVFFLENDDQHNCLSDPADHSRLTEHVAKAFCLALCPHLKLLKEDGMTKLGLRVTLDSDQVGYQAGSNGQPLPSQYMNDLDSALVPVIHGGACQLSEGPVVMELIFYILENIV
Q: For B1, which binding is on record?
A: binds
